Data reported in article PMC4870573.
No constants are given. Whether binding was seen depends on the method and setting. In cells and extracts the contact can be indirect. Some entries that bind do so weakly or less than the wild type. Tags and fused reporters may be left off the sequences shown. One block for each molecule: values may come before it.

Sequences of proteins named here, by UniProt entry; tags and fusion partners are left off.
UniProt Q02085: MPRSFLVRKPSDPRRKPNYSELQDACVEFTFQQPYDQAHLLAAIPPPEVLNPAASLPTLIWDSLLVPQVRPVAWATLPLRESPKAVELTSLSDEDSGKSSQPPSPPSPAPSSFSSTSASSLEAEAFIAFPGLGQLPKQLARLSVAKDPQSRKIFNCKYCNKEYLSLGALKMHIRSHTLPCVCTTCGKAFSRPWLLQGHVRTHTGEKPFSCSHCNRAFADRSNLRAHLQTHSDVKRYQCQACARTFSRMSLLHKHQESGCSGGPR

Tests used:
[1] = biological target: T1, mouse Elongator protein 3, C-terminal Flag (pCS2+-C-Flag) (mouse) (UniProt Q9CZX0); test: co-IP; HEK293 cells transfected with the indicated plasmids, 48 h, with or without MG132 for 6-8 h before harvest; lysis in 50 mM Tris-HCl pH 7.4, 150 mM NaCl, 5 mM EDTA, 1% Triton X-100; Flag-M2 beads, 4 °C, 4 h; Western blot with antibodies against the tags
T1 sequence: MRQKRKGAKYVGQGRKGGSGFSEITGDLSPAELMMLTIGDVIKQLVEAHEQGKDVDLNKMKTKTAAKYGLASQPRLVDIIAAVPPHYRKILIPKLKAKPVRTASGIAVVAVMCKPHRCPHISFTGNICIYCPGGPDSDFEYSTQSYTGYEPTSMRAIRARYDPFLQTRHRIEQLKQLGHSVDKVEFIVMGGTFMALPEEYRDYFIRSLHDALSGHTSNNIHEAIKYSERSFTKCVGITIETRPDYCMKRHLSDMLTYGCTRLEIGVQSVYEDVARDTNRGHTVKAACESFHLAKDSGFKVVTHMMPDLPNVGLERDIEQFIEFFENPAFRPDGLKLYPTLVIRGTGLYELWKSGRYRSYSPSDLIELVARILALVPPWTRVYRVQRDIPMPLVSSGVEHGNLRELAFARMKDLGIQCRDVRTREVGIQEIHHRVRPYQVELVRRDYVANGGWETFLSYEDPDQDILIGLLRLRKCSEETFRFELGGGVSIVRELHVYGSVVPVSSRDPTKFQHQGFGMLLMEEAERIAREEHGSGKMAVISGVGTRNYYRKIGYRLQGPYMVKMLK

[2] = biological target: mouse Snail1, C-terminal Flag (pCS2+-C-Flag), full length (mouse) (UniProt Q02085); test: as above
[3] = biological target: T1, mouse Elongator protein 3, C-terminal Flag (pCS2+-C-Flag) (mouse); test: co-IP; co-IP of mElp3 with xSlug (Supplementary Fig. S1a); cells and tags not told in the text shown

binding [1]: binds
Molecule: mouse Snail1, N-terminal Myc (pCS2+-N-Myc), full length (from UniProt Q02085 1-264)

binding [2]: binds
B1: mouse Elongator protein 3, N-terminal Myc (pCS2+-N-Myc) (enzyme, UniProt Q9CZX0-2 1-566)
chain: MRQKRKGAKYVGQGRKGGSGFSEITGDLSPAELMMLTIGDVIKQLVEAHEQGKDVDLNKMKTKTAAKYGLASQPRLVDIIAAVPPHYRKILIPKLKAKPVRTASGIAVVAVMCKPHRCPHISFTGNICIYCPGGPDSDFEYSTQSYTGYEPTSMRAIRARYDPFLQTRHRIEQLKQLGHSVDKVEFIVMGGTFMALPEEYRDYFIRSLHDALSGHTSNNIHEAIKYSERSFTKCVGITIETRPDYCMKRHLSDMLTYGCTRLEIGVQSVYEDVARDTNRGHTVKAACESFHLAKDSGFKVVTHMMPDLPNVGLERDIEQFIEFFENPAFRPDGLKLYPTLVIRGTGLYELWKSGRYRSYSPSDLIELVARILALVPPWTRVYRVQRDIPMPLVSSGVEHGNLRELAFARMKDLGIQCRDVRTREVGIQEIHHRVRPYQVELVRRDYVANGGWETFLSYEDPDQDILIGLLRLRKCSEETFRFELGGGVSIVRELHVYGSVVPVSSRDPTKFQHQGFGMLLMEEAERIAREEHGSGKMAVISGVGTRNYYRKIGYRLQGPYMVKMLK

binding [3]: binds
B2: Xenopus Slug (Snail2) (protein, UniProt Q91924 1-266)
chain: MPRSFLVKKHFNSAKKPNYGELDNHTVIISPFLYERYPVSVLPQPDIYSSVAYSPITVWTGLLHPPLPSDLSPLSGYPSSLGRVSPPPQSDTSSKDHSGSESPISDEEERLQTKLSDSHAIEAEKFQCSLCSKTYSTFSGLAKHKQLHCDAQSRKSFSCKYCEKEYVSLGALKMHIRTHTLPCVCKICGKAFSRPWLLQGHIRTHTGEKPFSCPHCNRAFADRSNLRAHLQTHSDVKKYQCKNCSKTFSRMSLLHKHEESGCCVAH
